# Measured values as given in the supplement of paper PMC8728848.
# The other results are listed elsewhere or left out.
# B1: Clec12b (Mus musculus), Q149M0 (protein)
# chain: MSDEVTYATLMLQDSARVRGNQDGNNLRKEGHPAQSSLWRGAALSLMTLCLVLVTGLVTLATMFLQVSNDINSDSEKLSQLQKSIHPQQDNLSESLNSSRKSLTEESLQSQISALLERQEQMATKLCKEFLIHASDHKCNPCPKTWQWYGNSCYYFSINEEKSWSDSRKDCIDKNATLVKIDSTEERDLLQSQLSLTFSFFWLGLSWNSSGRNWLWEDGSFPPPTLFSDKELASFNGSRDCAYFERGNIYASRCSAEIPWICEKTASLVKTEDLD
# Tests used:
# Assay in all cases: glycan array binding signal (z-score within array); higher = stronger binding
# Settings in all cases: glycan notation: IUPAC condensed, linker removed
# [1] = molecular target: Gal6S(b1-4)Glc
# Procedure, shortened: (§1)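 Columns mapping to the same glycan were averaged after glycan names were converted to IUPAC-condensed notation. The data come from 3228 arrays in the Consortium for Functional Glycomics database, limited to those with an available protein sequence. Binding is reported as a within-array Z-score averaged across arrays of one protein sequence and across linkers.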
# [2] = molecular target: Gal6S(b1-4)Glc6S
# Procedure, shortened: as §1
# [3] = molecular target: Gal6S(b1-4)GlcNAc
# Procedure, shortened: as §1
# [4] = molecular target: Gal6S(b1-4)GlcNAc6S
# Procedure, shortened: as §1
# [5] = molecular target: GalNAc(a1-3)Gal
# Procedure, shortened: as §1
# [6] = molecular target: GalNAc(a1-3)GalNAc
# Procedure, shortened: as §1
# [7] = molecular target: GalNAc(a1-3)GalNAc(b1-3)Gal(a1-4)Gal(b1-4)Glc
# Procedure, shortened: as §1
# [8] = molecular target: GalNAc(a1-3)GalNAc(b1-3)Gal(a1-4)Gal(b1-4)GlcNAc
# Procedure, shortened: as §1
# [9] = molecular target: GalNAc(b1-3)Gal
# Procedure, shortened: as §1
# [10] = molecular target: GalNAc(b1-3)Gal(a1-4)Gal(b1-4)GlcNAc
# Procedure, shortened: as §1
# [11] = molecular target: GalNAc(b1-3)Gal(a1-4)Gal(b1-4)GlcNAc(b1-3)Gal(b1-4)Glc
# Procedure, shortened: as §1
# [12] = molecular target: GalNAc(b1-3)Gal(a1-6)Gal(b1-4)Glc
# Procedure, shortened: as §1
# [13] = molecular target: GalNAc(b1-3)GalNAc
# Procedure, shortened: as §1
# [14] = molecular target: GalNAc(b1-3)GlcNAc
# Procedure, shortened: as §1
# [15] = molecular target: GalNAc(b1-4)Gal(b1-4)Glc
# Procedure, shortened: as §1
# [16] = molecular target: GalNAc(b1-4)GlcNAc
# Procedure, shortened: as §1
# [17] = molecular target: GalNAc(b1-4)GlcNAc(b1-2)Man
# Procedure, shortened: as §1
# [18] = molecular target: GalNAc(b1-4)GlcNAc(b1-2)Man(a1-3)[GalNAc(b1-4)GlcNAc(b1-2)Man(a1-6)]Man(b1-4)GlcNAc(b1-4)GlcNAc
# Procedure, shortened: as §1
# [19] = molecular target: GalNAc(b1-4)GlcNAc(b1-3)GalNAc(b1-4)GlcNAc
# Procedure, shortened: as §1
# [20] = molecular target: GalNAc(b1-4)GlcNAc6S
# Procedure, shortened: as §1
# [21] = molecular target: GalNAc(b1-6)GalNAc
# Procedure, shortened: as §1
# [22] = molecular target: GalNAc3S(b1-4)GlcNAc
# Procedure, shortened: as §1
# [23] = molecular target: GalNAc3S(b1-4)GlcNAc3S
# Procedure, shortened: as §1
# [24] = molecular target: GalNAc3S(b1-4)[Fuc(a1-3)]GlcNAc
# Procedure, shortened: as §1
# [25] = molecular target: GalNAc4S6S(b1-4)GlcNAc
# Procedure, shortened: as §1
# [26] = molecular target: GalNAc6S(b1-4)GlcNAc
# Procedure, shortened: as §1
# [27] = molecular target: Glc(a1-4)Glc
# Procedure, shortened: as §1
# [28] = molecular target: Glc(a1-4)Glc(a1-4)Glc(a1-4)Glc
# Procedure, shortened: as §1
# [29] = molecular target: Glc(a1-6)Glc(a1-6)Glc
# Procedure, shortened: as §1
# [30] = molecular target: Glc(a1-6)Glc(a1-6)Glc(a1-6)Glc
# Procedure, shortened: as §1
# [31] = molecular target: Glc(b1-4)Glc
# Procedure, shortened: as §1
# [32] = molecular target: Glc(b1-6)Glc
# Procedure, shortened: as §1
# [33] = molecular target: GlcA(b1-3)Gal
# Procedure, shortened: as §1
# [34] = molecular target: GlcA(b1-3)GlcNAc
# Procedure, shortened: as §1
# [35] = molecular target: GlcA(b1-6)Gal
# Procedure, shortened: as §1
# [36] = molecular target: GlcA3S(b1-3)Gal(b1-4)GlcNAc(b1-2)Man
# Procedure, shortened: as §1
# [37] = molecular target: GlcA3S(b1-3)Gal(b1-4)GlcNAc(b1-3)Gal(b1-4)Glc
# Procedure, shortened: as §1
# [38] = molecular target: GlcNAc(a1-3)Gal(b1-4)GlcNAc
# Procedure, shortened: as §1
# [39] = molecular target: GlcNAc(a1-4)Gal(b1-3)GlcNAc
# Procedure, shortened: as §1
# [40] = molecular target: GlcNAc(a1-4)Gal(b1-4)GalNAc
# Procedure, shortened: as §1
# [41] = molecular target: GlcNAc(a1-4)Gal(b1-4)GlcNAc
# Procedure, shortened: as §1
# [42] = molecular target: GlcNAc(a1-4)Gal(b1-4)GlcNAc(b1-3)Gal(b1-4)Glc
# Procedure, shortened: as §1
# [43] = molecular target: GlcNAc(a1-4)Gal(b1-4)GlcNAc(b1-3)Gal(b1-4)GlcNAc
# Procedure, shortened: as §1
# [44] = molecular target: GlcNAc(a1-4)Gal(b1-4)GlcNAc(b1-3)Gal(b1-4)GlcNAc(b1-3)Gal(b1-4)GlcNAc
# Procedure, shortened: as §1
# [45] = molecular target: GlcNAc(a1-4)Gal(b1-4)GlcNAc(b1-3)Gal(b1-4)[Fuc(a1-3)]GlcNAc(b1-3)Gal(b1-4)[Fuc(a1-3)]GlcNAc
# Procedure, shortened: as §1
binder,measurement,setting,value
B1,glycan array binding signal (z-score),[1],1.96
same,glycan array binding signal (z-score),[2],1.24
same,glycan array binding signal (z-score),[3],-0.525
same,glycan array binding signal (z-score),[4],-0.228
same,glycan array binding signal (z-score),[5],1.15
same,glycan array binding signal (z-score),[6],-0.461
same,glycan array binding signal (z-score),[7],-0.172
same,glycan array binding signal (z-score),[8],-0.428
same,glycan array binding signal (z-score),[9],0.114
same,glycan array binding signal (z-score),[10],0.178
same,glycan array binding signal (z-score),[11],-0.695
same,glycan array binding signal (z-score),[12],-0.176
same,glycan array binding signal (z-score),[13],-0.125
same,glycan array binding signal (z-score),[14],-0.387
same,glycan array binding signal (z-score),[15],0.106
same,glycan array binding signal (z-score),[16],0.301
same,glycan array binding signal (z-score),[17],1.9
same,glycan array binding signal (z-score),[18],0.063
same,glycan array binding signal (z-score),[19],0.189
same,glycan array binding signal (z-score),[20],-0.159
same,glycan array binding signal (z-score),[21],1.14
same,glycan array binding signal (z-score),[22],-0.691
same,glycan array binding signal (z-score),[23],-0.608
same,glycan array binding signal (z-score),[24],-0.662
same,glycan array binding signal (z-score),[25],-0.653
same,glycan array binding signal (z-score),[26],-0.398
same,glycan array binding signal (z-score),[27],1.09
same,glycan array binding signal (z-score),[28],0.081
same,glycan array binding signal (z-score),[29],-0.416
same,glycan array binding signal (z-score),[30],-0.465
same,glycan array binding signal (z-score),[31],0
same,glycan array binding signal (z-score),[32],-0.441
same,glycan array binding signal (z-score),[33],-0.165
same,glycan array binding signal (z-score),[34],-0.05
same,glycan array binding signal (z-score),[35],-0.585
same,glycan array binding signal (z-score),[36],0.773
same,glycan array binding signal (z-score),[37],0.169
same,glycan array binding signal (z-score),[38],-0.343
same,glycan array binding signal (z-score),[39],-0.587
same,glycan array binding signal (z-score),[40],-0.3
same,glycan array binding signal (z-score),[41],1.28
same,glycan array binding signal (z-score),[42],-0.275
same,glycan array binding signal (z-score),[43],-0.57
same,glycan array binding signal (z-score),[44],-0.56
same,glycan array binding signal (z-score),[45],0.317

# Random excerpt: 2 records from the list.
binder,measurement,setting,value
B1,glycan array binding signal (z-score),[35],-0.585
same,glycan array binding signal (z-score),[21],1.14
